Assay results as given in PMC6321601 (Molecules, 2018).

System: HepG-2 and L-O2 cell lines
Assay: Therapeutic index, ratio of IC50 for L-O2 to IC50 for HepG-2
Format: cell-based, human
Conditions: IC50 (L-O2)/IC50 (HepG-2)

Compound | TI (Therapeutic Index)
CC(=O)OC(C)(C)/C=C/C(=O)[C@](C)(O)C1[C@H](OC(=O)CCC(=O)OC/C=C/COc2no[n+]([O-])c2S(=O)(=O)c2ccccc2)C[C@@]2(C)C3CC=C4C(CC(O)C(=O)C4(C)C)[C@]3(C)C(=O)C[C@]12C (stereo partly drawn) [Compound 10l, 4-(((E)-4-((4-(((9R,13R,14S,16R)-17-((R,E)-6-Acetoxy-2-hydroxy-6-methyl-3-oxohept-4-en-2-yl)-2-hydroxy-4,4,9,13,14-pentamethyl-3,11-dioxo-2,3,4,7,8,9,10,11,12,13,14,15,16,17-tetradecahydro-1H-cyclopenta[a]phenanthren-16-yl)oxy)-4-oxobutanoyl)oxy)but-2-en-1-yl)oxy)-3-(phenylsulfonyl)-1,2,5-oxadiazole 2-oxide] | 2.69
CC(=O)OC(C)(C)/C=C/C(=O)[C@](C)(O)C1[C@H](OC(=O)CCC(=O)OCC#CCOc2no[n+]([O-])c2S(=O)(=O)c2ccccc2)C[C@@]2(C)C3CC=C4C(CC(O)C(=O)C4(C)C)[C@]3(C)C(=O)C[C@]12C (stereo partly drawn) [Compound 10m, 4-((4-((4-(((9R,13R,14S,16R)-17-((R,E)-6-Acetoxy-2-hydroxy-6-methyl-3-oxohept-4-en-2-yl)-2-hydroxy-4,4,9,13,14-pentamethyl-3,11-dioxo-2,3,4,7,8,9,10,11,12,13,14,15,16,17-tetradecahydro-1H-cyclopenta[a]phenanthren-16-yl)oxy)-4-oxobutanoyl)oxy)but-2-yn-1-yl)oxy)-3-(phenylsulfonyl)-1,2,5-oxadiazole 2-oxide] | 2.18
CC(=O)OC(C)(C)/C=C/C(=O)[C@](C)(O)C1[C@H](OC(=O)CCC(=O)OCc2ccc(COc3no[n+]([O-])c3S(=O)(=O)c3ccccc3)cc2)C[C@@]2(C)C3CC=C4C(CC(O)C(=O)C4(C)C)[C@]3(C)C(=O)C[C@]12C (stereo partly drawn) [Compound 10o, 4-((4-(((4-(((9R,13R,14S,16R)-17-((R,E)-6-Acetoxy-2-hydroxy-6-methyl-3-oxohept-4-en-2-yl)-2-hydroxy-4,4,9,13,14-pentamethyl-3,11-dioxo-2,3,4,7,8,9,10,11,12,13,14,15,16,17-tetradecahydro-1H-cyclopenta[a]phenanthren-16-yl)oxy)-4-oxobutanoyl)oxy)methyl)benzyl)oxy)-3-(phenylsulfonyl)-1,2,5-oxadiazole 2-oxide] | 2.94
